Measurements reported in paper PMC4687643.
No constants are given. Whether binding was seen depends on the method and setting. Binding calls can cover weak binding; strength is not graded here. Where a sequence is shown, tags or fusion partners need not be part of it. For some of these results: In cells and extracts the contact can be indirect.

Assays:
[1] = target: T1, GST-amphiphysin II SH3 domain (human) (UniProt O00499); assay: pull-down; GST-SH3 domains (~3 μg) on GSH-sepharose beads incubated with rat brain synaptosome lysate (1% Triton X-100, 5 mM Tris pH 7.4, 30 mM NaCl); Coomassie Blue stained gel; only the target purified
T1 sequence: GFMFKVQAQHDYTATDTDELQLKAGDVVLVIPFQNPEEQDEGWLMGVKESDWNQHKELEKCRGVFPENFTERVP

[2] = target: T2, GST-Formin Binding Protein 17 (FBP17) SH3 domain (human) (UniProt Q96RU3); assay: as above
T2 sequence: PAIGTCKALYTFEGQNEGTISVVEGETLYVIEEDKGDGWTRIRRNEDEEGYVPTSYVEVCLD

[3] = target: T3, GST-amphiphysin I SH3 domain (human) (UniProt P49418); assay: as above
T3 sequence: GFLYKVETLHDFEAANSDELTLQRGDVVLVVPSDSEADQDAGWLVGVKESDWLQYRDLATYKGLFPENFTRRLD

[4] = target: T4, GST-Cdc42 interacting protein 4 (CIP4) SH3 domain (human) (UniProt Q15642); assay: as above
T4 sequence: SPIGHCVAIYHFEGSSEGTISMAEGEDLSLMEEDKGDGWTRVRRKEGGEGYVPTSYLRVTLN

[5] = target: T1, GST-amphiphysin II SH3 domain (human); assay: pull-down; GST-SH3 domains (~12 μg) on GSH-sepharose beads incubated with purified sheep dynamin I (~3 μg), 10 min, 4°C; 10 mM Tris pH 7.4, 30 mM or 150 mM NaCl, 20 mM MgCl2, 0.05% Tween 80, 1 mM EDTA, 1 mM EGTA; Coomassie Blue stained gel; both purified
[6] = target: T2, GST-Formin Binding Protein 17 (FBP17) SH3 domain (human); assay: as above
[7] = target: T3, GST-amphiphysin I SH3 domain (human); assay: as above
[8] = target: T4, GST-Cdc42 interacting protein 4 (CIP4) SH3 domain (human); assay: as above
[9] = target: T1, GST-amphiphysin II SH3 domain (human); assay: pull-down; GST-SH3 domains (~12 μg) on GSH-sepharose beads incubated with purified recombinant full-length human dynamin I splice variants (~3 μg), 30 min, 4°C; 30 mM or 150 mM NaCl; Coomassie Blue stained gel; both purified
[10] = target: T2, GST-Formin Binding Protein 17 (FBP17) SH3 domain (human); assay: as above
[11] = target: T3, GST-amphiphysin I SH3 domain (human); assay: as above
[12] = target: T4, GST-Cdc42 interacting protein 4 (CIP4) SH3 domain (human); assay: as above

Measured: binding

dynamin in rat brain synaptosomes (enzyme)
binds: [1] | [2] | [3] | [4]

endogenous sheep brain dynamin I (enzyme)
binds: [5] | [6] | [7] | [8]

recombinant human dynamin I middle domain splice variant Iab (enzyme)
binds: [9] | [10] | [11] | [12]

recombinant human dynamin I middle domain splice variant Ibb (enzyme)
binds: [9] | [10] | [11] | [12]
